Test results taken from publication PMC4199500.
No constants are given. Whether binding was seen depends on the method and setting. Binding seen in cells or lysates may run through a third protein.

Amino acid sequences for entries named in this document (tags omitted).
UniProt Q13148: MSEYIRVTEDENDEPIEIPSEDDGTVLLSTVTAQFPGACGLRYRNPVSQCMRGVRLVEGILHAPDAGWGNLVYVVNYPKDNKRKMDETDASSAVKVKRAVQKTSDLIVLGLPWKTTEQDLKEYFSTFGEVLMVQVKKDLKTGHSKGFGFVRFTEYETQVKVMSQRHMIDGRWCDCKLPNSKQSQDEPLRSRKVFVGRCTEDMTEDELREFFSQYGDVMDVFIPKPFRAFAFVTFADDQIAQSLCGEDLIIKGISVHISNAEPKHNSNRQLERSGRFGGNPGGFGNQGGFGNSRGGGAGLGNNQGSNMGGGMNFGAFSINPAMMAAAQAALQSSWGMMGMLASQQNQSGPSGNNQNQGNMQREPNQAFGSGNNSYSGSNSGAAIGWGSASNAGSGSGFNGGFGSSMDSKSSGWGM
UniProt O43524: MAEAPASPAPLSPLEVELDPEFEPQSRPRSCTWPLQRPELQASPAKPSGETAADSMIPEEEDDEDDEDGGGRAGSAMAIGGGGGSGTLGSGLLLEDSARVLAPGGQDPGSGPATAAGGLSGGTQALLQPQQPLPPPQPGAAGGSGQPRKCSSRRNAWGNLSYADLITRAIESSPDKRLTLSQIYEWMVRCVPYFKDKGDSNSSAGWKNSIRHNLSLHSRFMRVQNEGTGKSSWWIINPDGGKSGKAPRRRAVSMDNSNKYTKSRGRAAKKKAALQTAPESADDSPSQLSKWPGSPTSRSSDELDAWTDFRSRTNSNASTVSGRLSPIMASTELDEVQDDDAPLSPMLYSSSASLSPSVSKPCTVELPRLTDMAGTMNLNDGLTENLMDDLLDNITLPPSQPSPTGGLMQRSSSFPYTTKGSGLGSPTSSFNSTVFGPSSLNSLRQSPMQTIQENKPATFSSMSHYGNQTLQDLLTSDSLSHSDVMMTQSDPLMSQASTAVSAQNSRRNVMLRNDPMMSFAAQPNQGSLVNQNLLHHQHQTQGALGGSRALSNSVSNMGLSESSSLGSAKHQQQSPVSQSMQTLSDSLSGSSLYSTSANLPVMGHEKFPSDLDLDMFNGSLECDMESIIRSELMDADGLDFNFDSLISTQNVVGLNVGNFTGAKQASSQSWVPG

Target: Myc-tagged TDP-43 (transactive response DNA-binding protein, TARDBP) (human) (UniProt Q13148)
Assay: co-IP; HEK293T cells co-transfected with Myc-TDP-43 and Flag-FOXO3a or Flag-FOXO3aAAA; anti-Myc (TDP-43) antibody for the pull-down, western blotting with anti-Myc and anti-Flag

- binding: no binding
Substance: Flag-tagged FOXO3a (from UniProt O43524 1-673)
